# Hit rate of the full screen: of about 340,000 compounds, about 4,500 (1.3%) were called active. This list was built around the results that the source calls inconclusive (neither active nor inactive); the mix of calls is not that of the screen. Calls come from the whole dose curve; as a rule, active = well fitted inhibition curve with a large enough effect; inconclusive = small, poorly fitted or top-dose-only effect, or another doubt; inactive = no such curve, though single readings can be large or run the other way. Where the call is inconclusive, the potency comes from a doubtful curve fit.
# Target: DNA polymerase beta (Homo sapiens) (UniProt P06746)
# Test: qHTS Assay for Inhibitors of DNA Polymerase Beta
# Settings: Pol beta primer extension/strand displacement, fluorescence kinetic; activity change, negative = inhibition: at 114 µM (top of the series)
# Summary of the method: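 Curves were derived by four-parameter Hill fits of normalized qHTS data. The kinetic fluorescent primer-extension read was taken at 0 and 10 min after 50 nM substrate, following a 15 min room-temperature preincubation of 10 nM enzyme with compounds.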
# % is set by controls: 0 for no effect and ±100 for the full control effect; potency is the fitted concentration of half-maximal effect.
SMILES,Potency,"activity change, negative = inhibition"
O=C(Nc1ccccc1N1CCOCC1)c1cnccn1,"inconclusive: 89.1 µM [inhibitor, single point]",–
Cc1ccc(NCC(O)Cn2cnc3c2c(=O)n(C)c(=O)n3C)cc1 (centres undefined),active: 12.6 µM,–
COCCCN1C(=O)c2ccc(C(=O)Nc3ccccc3OC)cc2C1=O,"inconclusive: 89.1 µM [inhibitor, single point]",–
O=C(CSc1n[nH]c(-c2ccco2)n1)N1c2ccccc2Sc2ccccc21,"inconclusive: 44.7 µM [inhibitor, partial curve]",–
COc1cc(C)c(Cl)cc1S(=O)(=O)n1cnc2ccccc21,active: 89.1 µM,–
Cc1ccc(N=Cc2c(O)[nH]c3ccccc23)c([N+](=O)[O-])c1,"inconclusive: 2.82 µM [inhibitor, full curve]",–
N#Cc1ccc2c(c1)C[C@]1(CCCCN3C(=O)c4ccccc4C3=O)Oc3c(c(=O)oc4ccccc34)C2O1,"inconclusive: 1.58 µM [inhibitor, full curve, poor fit]",–
CCc1ccc(Nc2nc(N)nc(CSc3nnnn3-c3ccccc3)n2)cc1,"inconclusive: 14.1 µM [inhibitor, partial curve, poor fit]",–
COc1cnc(-c2ccccn2)nc1Sc1ccc(Cl)cc1,"inconclusive: 3.98 µM [inhibitor, single point]",–
CC1CCc2c(sc(NC(=O)CCCOc3ccc(C(C)(C)C)cc3)c2C(N)=O)C1 (centres undefined),–,inactive: -11%
Cc1c(C)n(Cc2ccccc2)c2ncnc(NCCCO)c12,"inconclusive: 39.8 µM [inhibitor, single point]",–
Cc1nc(NC(=O)CSc2nnc(C3CC3)n2C)sc1C(=O)N(C)C,"inconclusive: 70.8 µM [inhibitor, single point]",–
CN(C)c1ccc(NC(=O)CCSc2nc(-c3ccco3)cc(C(F)(F)F)n2)cc1,–,inactive: -5.2%
CSc1cccc(NC(=O)CN(c2ccccc2)S(=O)(=O)N(C)C)c1,active: 10 µM,–
Cc1ccc(-n2nc3c(=O)n(CCCC(=O)NCc4ccccc4Cl)nc(C)c3c2C)cc1,"inconclusive: 39.8 µM [inhibitor, partial curve, poor fit]",–
O=C1CN(C(=O)Cn2ncc(Cl)c(Cl)c2=O)c2ccccc2N1,"inconclusive: 28.2 µM [inhibitor, full curve, poor fit]",–
COCCN1C(=O)N(c2cccc(C)c2)C(=O)C1CC(=O)Nc1cc(OC)cc(OC)c1 (centres undefined),"inconclusive: 56.2 µM [inhibitor, partial curve]",–
COc1ccc(-c2cc(C3CCN(Cc4cccc(C(F)(F)F)c4)CC3)[nH]n2)cc1,"inconclusive: 5.62 µM [inhibitor, partial curve, poor fit]",–
Cc1cc(=O)n2nc(N3CCCC(C(=O)NCc4cccc(Br)c4)C3)sc2n1 (centres undefined),"inconclusive: 39.8 µM [inhibitor, partial curve, poor fit]",–
CC(C)c1ccc(NC(=O)CN2C(=O)COc3ccc(S(=O)(=O)Nc4ccccc4)cc32)cc1,"inconclusive: 89.1 µM [inhibitor, single point]",–
O=[N+]([O-])c1cc(-c2nc(-c3cccnc3)no2)ccc1NCc1ccccc1,"inconclusive: 70.8 µM [inhibitor, partial curve]",–
COc1ccc(NC(=O)c2sc3nc(C)cc(C)c3c2N)cc1,"inconclusive: 10 µM [inhibitor, full curve, poor fit]",–

# A draw from above in order of heavy-atom count, low to high:
SMILES,Potency,"activity change, negative = inhibition"
O=C(CSc1n[nH]c(-c2ccco2)n1)N1c2ccccc2Sc2ccccc21,"inconclusive: 44.7 µM [inhibitor, partial curve]",–
Cc1ccc(-n2nc3c(=O)n(CCCC(=O)NCc4ccccc4Cl)nc(C)c3c2C)cc1,"inconclusive: 39.8 µM [inhibitor, partial curve, poor fit]",–
CC(C)c1ccc(NC(=O)CN2C(=O)COc3ccc(S(=O)(=O)Nc4ccccc4)cc32)cc1,"inconclusive: 89.1 µM [inhibitor, single point]",–

# Next structures.

SMILES,Potency,"activity change, negative = inhibition"
COc1ccc(/C=C(/NC(=O)c2cccs2)C(=O)NCc2ccco2)cc1OC,–,inactive: 3.48%
O=C(Nc1ccc(C(=O)O)cc1)/C(=C\c1ccc2c(c1)OCO2)NC(=O)c1ccccc1,–,inactive: -0.966%
Cc1ccc(C)c(CNS(=O)(=O)c2c(C(=O)N3CCCC3)c(C)n(C)c2C)c1,–,inactive: 2.39%
Clc1ccc(N/N=C/c2ccncc2)cc1Cl,"inconclusive: 31.6 µM [inhibitor, full curve]",–
CCC(=O)N1CCc2cc(Br)cc(S(=O)(=O)NCc3ccc(Cl)cc3)c21,"inconclusive: 44.7 µM [inhibitor, partial curve, poor fit]",–
COc1ccccc1Sc1nc(-c2ccccc2)ncc1OC,"inconclusive: 17.8 µM [inhibitor, partial curve]",–
COc1ccc(C)cc1S(=O)(=O)N1CCOCC1,–,inactive: -13.3%
CNC(=O)/C(C#N)=C/c1ccc(-c2ccc(OC)cc2[N+](=O)[O-])o1,"inconclusive: 39.8 µM [inhibitor, partial curve]",–
O=C(CSc1nnc2c3ccccc3c3ccccc3c2n1)Nc1ccccc1F,active: 11.2 µM,–
COc1ccc(-c2nnn(CC(=O)c3ccccc3)n2)cc1OC,"inconclusive: 89.1 µM [inhibitor, single point]",–
Cc1ccc(Cl)cc1NC(=O)CSC1=Nc2ccccc2C2=NC(Cc3ccccc3)C(=O)N12 (centres undefined),–,inactive: -25.8%
COc1ccc(NC(=O)Cn2nc(-c3ccncc3)ccc2=O)cc1Cl,–,inactive: 3.26%
NC(=O)c1c(NC(=O)c2ccccc2)sc2c1CCC2,–,inactive: -1.08%
COCCCn1c(=N)c(C(=O)NCc2ccc3c(c2)OCO3)cc2c(=O)n3ccccc3nc21,"inconclusive: 35.5 µM [inhibitor, full curve, poor fit]",–
Cc1ccc(/C([O-])=C(/C(=S)NCc2ccco2)[n+]2ccccc2)cc1,–,inactive: -2.53%
COc1ccc(N2CCN(C(=O)c3ccc4c(c3)[nH]c(=S)n3c5ccccc5nc43)CC2)cc1,"inconclusive: 89.1 µM [inhibitor, single point]",–
COc1ccc(-c2nc(-c3cccs3)c(-c3cccs3)[nH]2)cc1OC,active: 89.1 µM,–
C#CC(C)(CC)NC(=O)c1cnn2c(C(F)F)cc(-c3ccccc3OC)nc12 (centres undefined),"inconclusive: 17.8 µM [inhibitor, partial curve]",–
O=C(Cc1cccs1)N/N=C/C=C/c1ccco1,active: 17.8 µM,–
COc1ccc(NC(=O)CSc2sc3c(O)cc(=O)[nH]c3c2C#N)c(OC)c1,active: 1.58 µM,–
Cc1ccc(NC(=O)c2oc3ccc(S(=O)(=O)N(C)C4CCCCC4)cc3c2C)cc1Cl,–,inactive: 18.5%
O=C(CCCN1C(=O)c2cccc3cccc(c23)C1=O)Nc1ccon1,"inconclusive: 0.112 µM [inhibitor, full curve, poor fit]",–

# Reference: PubChem BioAssay AID485314 (National Center for Advancing Translational Sciences (NCATS), 2010)
